Paper PMC8551270 (Scientific Reports, 2021)

Assay: general procedure: Fmoc solid-phase peptide synthesis; Rink amide PS resin, PAL PS resin; Fmoc-Rink amide Tentagel resin; Fmoc-PAL-PS resin (TAMRA peptides); DIC / oxyma pure in NMP; PyAOP/DIPEA for TAMRA
Conditions: whole synthesis, UPLC (Waters BEH C18, H2O/ACN + 0.05% TFA), scale of the general procedure 10 µmol (TAMRA-labelled peptides), approximately 10 mg resin

Substance	final HPLC purity
[K^ε4(TAMRA)K^ε30(C14diacid-γGlu-2xAdo)]PYY3-36	98.5%
[K^ε22(C18diacid-γGlu-2xAdo)]PYY3-36	95.0%
[K^ε4(TAMRA)K^ε7(C18diacid-γGlu-2xAdo)]PYY3-36	95.0%
[K^ε4(TAMRA)K^ε19(C18diacid-γGlu-2xAdo)]PYY3-36	95.4%
[K^ε4(TAMRA)K^ε33(C18diacid-γGlu-2xAdo)]PYY3-36	91.1%
[K^ε4(TAMRA)K^ε30(C16diacid-γGlu-2xAdo)]PYY3-36	99.2%
[K^ε30(C14diacid-2xAdo)]PYY3-36	97.0%
[K^ε4(TAMRA)K^ε30(C18diacid-γGlu-2xAdo)]PYY3-36	96.5%
[Ac, Arg^4, Gln^18,K^ε30(C18diacid-γGlu-2xAdo)]PYY3-36	95.3%
[K^ε4(TAMRA)K^ε25(C18diacid-γGlu-2xAdo)]PYY3-36	97.8%
[K^ε4(TAMRA)K^ε10(C18diacid-γGlu-2xAdo)]PYY3-36	98.5%
